Consider 22 compounds from the supplement of paper PMC7752906.

Structures can show the parent of a compound that is named as a salt. The list shows a part of the results. This data set is noisy: repeats of one test often differ as much as different tests do.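 Test system: Schistosoma mansoni schistosomula, roughly 40 per well, imaged in bright field over time and compared with wells given 0.1% DMSO. Distance read-out: the paper calls a drug a hit when its Mahalanobis distance is at least 2.47, three standard deviations above the DMSO control mean. Degeneracy is the share of worms classified opaque.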

The test system of this assay is Schistosoma mansoni schistosomula. Put plainly: degeneracy (percent of somules classified as degenerate/opaque); higher = more parasite degeneration/death; extreme values may be limits of the assay. The note with it: 10 µM; 72 h.
As to `C[C@]12CCC(=O)C=C1CC[C@@H]1[C@@H]2CC[C@@]2(C)[C@H]1CC[C@]2(C)O` [Methyltestosterone], the degeneracy is 14.3%.

In turn, `CC(C)C[C@H]1C(=O)N2CCC[C@H]2[C@]2(O)O[C@](NC(=O)[C@@H]3C=C4c5cccc6[nH]c(Br)c(c56)C[C@H]4N(C)C3)(C(C)C)C(=O)N12` [Bromocriptine Mesylate] returned a degeneracy of 61.9%.

`CNCC(O)c1ccc(O)cc1` (configuration not stated) [Oxedrine] returned a degeneracy of 6.9%.

Turning to `CCOP(=S)(OCC)Oc1cc(C)nc(C(C)C)n1` [Diazinon, Dimpylate], the degeneracy was 90.9%.

In turn, `CNC(C)(C)Cc1ccccc1` [Mephentermine Sulfate] returned a degeneracy of 3.45%.

Compound `C[C@]12CCC(=O)C(O)=C1CC[C@@H]1[C@@H]2CC[C@]2(C)C(=O)CC[C@@H]12` [Formestane] showed a degeneracy of 17.3%.

`CN(C)C(=O)Oc1cccc([N+](C)(C)C)c1` [Neostigmine Bromide] registered a degeneracy of 2.94%.

For the compound `CN1[C@H]2C[C@H](OC(=O)[C@H](CO)c3ccccc3)C[C@@H]1[C@@H](O)C2` [Anisodamine Hydrobromide], the degeneracy came to 0%.

`CN1CCc2cc3c(cc2C1O)OCO3` (configuration not stated) [Hydrastinine Hydrochloride] showed a degeneracy of 0%.

Regarding `NP(N)(=O)NC(=O)c1ccc(F)cc1` [Flurofamide], the degeneracy was determined as 2.94%.

Compound `O=c1[nH]c2ccccc2n1C1CCN(CCCC(c2ccc(F)cc2)c2ccc(F)cc2)CC1` [pimozide] displayed a degeneracy of 100%.

Regarding `CN(C)C(=O)Oc1ccc[n+](C)c1` [Pyridostigmine Bromide], the degeneracy turned out to be 8.16%.

`C#CCN(C)[C@H](C)Cc1ccccc1` [Selegiline]: the degeneracy turned out to be 0%.

Compound `NCCCNCCSP(=O)(O)O` [Amifostine] had a degeneracy of 0%.

Regarding `NC(=O)CN1CCCC1=O` [Piracetam], the degeneracy was 0%.

The compound `O=c1[nH]c(=O)n(Cl)c(=O)n1Cl` [Troclosene Potassium] came in with a degeneracy of 7.14%.

In turn, `CC(C)c1c(CN(C)C(C)Cc2ccccc2)n(C)n(-c2ccccc2)c1=O` (configuration not stated) [Famprofazone] registered a degeneracy of 32.3%.

Turning to `C=CCN1C[C@H](C(=O)N(CCCN(C)C)C(=O)NCC)C[C@@H]2c3cccc4[nH]cc(c34)C[C@H]21` [Cabergoline], the degeneracy is 15.6%.

In turn, `Clc1ccc(C(OCCN2CCCCC2)c2ccccc2)cc1` (configuration not stated) [Cloperastine Hydrochloride] showed a degeneracy of 100%.

`C[C@@H](CO)NC(=O)[C@@H]1C=C2c3cccc4[nH]cc(c34)C[C@H]2N(C)C1` [Ergonovine] gave a degeneracy of 26.7%.

With `C[C@@H](CO)NC(=O)[C@@H]1C=C2c3cccc4[nH]cc(c34)C[C@H]2N(C)C1` [Ergonovine Maleate], the degeneracy worked out at 19.4%.

`O=C1CN=C(c2ccccc2)c2cc([N+](=O)[O-])ccc2N1` [Nitrazepam] came in with a degeneracy of 7.14%.
